Reference: paper PMC6479716
Results are given in words; binding and its absence hold for the method and conditions named. A result given as binding can be weak or reduced; the word gives no strength. Sequences can lack the tags named with a protein.

B1: N-ter hexahistidine tagged lettuce eIF4E (protein, UniProt A0A2J6L8Y7 1-235)
chain: MVEEIMKSEEQKLIDVNKHRGVRSDGEEDEQLEEGEIVGGDADTLSSSSSSRPGTAIAQHPLEHSWTFWFDTPSAKSKQVAWGSSMRPIYTFSSVEEFWSLYNNIHRPSKLAQGADFYCFKNKIEPKWEDPVCANGGKWTMTFTKAKSDTCWLYTLLAMIGEQFDHGDDICGAVVNVRARQEKIALWTKNAANESAQLSIGKQWKEFIDYNDTIGFIFHEDAKTLDRSAKNKYTV

Assays:
[1] = molecular target: T1, N-ter hexahistidine tagged lettuce eIF4E (lettuce (Lactuca sativa cultivar Salinas)); assay: other fluorescence titration; decrease of the steady state intrinsic tryptophan fluorescence of eIF4E on titration by VPg; 25 °C, 20 mM HEPES pH 7.5, 0.25 mM NaCl, 1 mM DTT; both purified
T1 sequence: B1 chain

[2] = molecular target: T2, untagged full length lettuce eIF4E (lettuce (Lactuca sativa cultivar Salinas)); assay: as above
T2 sequence: B1 chain

[3] = molecular target: T3, untagged lettuce eIF4E deleted from its first 46 N-ter amino acid (lettuce (Lactuca sativa cultivar Salinas)); assay: as above
T3 sequence: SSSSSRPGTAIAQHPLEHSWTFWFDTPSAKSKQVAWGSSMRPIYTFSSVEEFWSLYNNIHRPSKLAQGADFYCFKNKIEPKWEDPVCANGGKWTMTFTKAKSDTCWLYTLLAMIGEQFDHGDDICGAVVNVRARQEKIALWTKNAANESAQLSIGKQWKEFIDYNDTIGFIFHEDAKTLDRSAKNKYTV

[4] = molecular target: T4, AEDANS labelled untagged lettuce eIF4E deleted from its first 46 N-ter amino acids (lettuce (Lactuca sativa cultivar Salinas)); assay: as above
T4 sequence (chain, AEDANS on cysteines (mean of 1.7 AEDANS moieties per molecule)): T3 sequence

[5] = molecular target: N-ter hexahistidine tagged LMV VPg (Lettuce mosaic virus (isolate AF199)); assay: SEC; Superose 12 HR 10/30, 20 mM HEPES/KOH, 0.4 M KCl, 1.4 mM 2-mercaptoethanol, 0.5 mL/min; monomers run alone (1 mL of 0.7-1 mg/mL); complex pre-formed from His6 eIF4E 0.7 mg/mL and an excess of His6 VPg 1.2 mg/mL; fractions analysed by SDS-PAGE; both purified

Molecule	binding [1]	binding [2]	binding [3]	binding [4]	binding [5]
LMV VPg as used in the intrinsic fluorescence titrations of Figure S3 (Lettuce mosaic virus (isolate AF199))	binds	binds	binds	binds	
B1					binds
